# Experimental data reported in the supplement of paper PMC10849652.
# Protein sequences, listed by entry. Tags and fused reporters are not part of them. Lines headed by an entry give the natural chain unless they say otherwise; changes in a name come on top.
# UniProt Q9NP72: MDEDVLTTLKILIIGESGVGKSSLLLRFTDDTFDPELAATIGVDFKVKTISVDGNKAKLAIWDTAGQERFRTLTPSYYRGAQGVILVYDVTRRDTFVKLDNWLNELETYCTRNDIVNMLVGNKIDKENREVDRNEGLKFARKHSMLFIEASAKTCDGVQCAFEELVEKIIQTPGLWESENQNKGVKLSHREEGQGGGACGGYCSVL
# UniProt Q9UL25: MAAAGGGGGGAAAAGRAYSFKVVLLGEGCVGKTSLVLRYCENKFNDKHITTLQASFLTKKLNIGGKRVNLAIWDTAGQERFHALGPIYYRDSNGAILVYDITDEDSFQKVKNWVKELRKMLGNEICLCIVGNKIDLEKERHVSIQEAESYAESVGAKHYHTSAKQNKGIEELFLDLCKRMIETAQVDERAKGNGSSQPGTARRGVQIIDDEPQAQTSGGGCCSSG
# UniProt P61018: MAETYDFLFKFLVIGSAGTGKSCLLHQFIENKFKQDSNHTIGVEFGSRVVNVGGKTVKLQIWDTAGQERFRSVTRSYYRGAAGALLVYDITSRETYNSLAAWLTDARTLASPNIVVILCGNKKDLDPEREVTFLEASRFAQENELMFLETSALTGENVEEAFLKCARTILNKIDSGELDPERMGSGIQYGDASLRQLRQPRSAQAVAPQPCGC
# UniProt Q8WU10: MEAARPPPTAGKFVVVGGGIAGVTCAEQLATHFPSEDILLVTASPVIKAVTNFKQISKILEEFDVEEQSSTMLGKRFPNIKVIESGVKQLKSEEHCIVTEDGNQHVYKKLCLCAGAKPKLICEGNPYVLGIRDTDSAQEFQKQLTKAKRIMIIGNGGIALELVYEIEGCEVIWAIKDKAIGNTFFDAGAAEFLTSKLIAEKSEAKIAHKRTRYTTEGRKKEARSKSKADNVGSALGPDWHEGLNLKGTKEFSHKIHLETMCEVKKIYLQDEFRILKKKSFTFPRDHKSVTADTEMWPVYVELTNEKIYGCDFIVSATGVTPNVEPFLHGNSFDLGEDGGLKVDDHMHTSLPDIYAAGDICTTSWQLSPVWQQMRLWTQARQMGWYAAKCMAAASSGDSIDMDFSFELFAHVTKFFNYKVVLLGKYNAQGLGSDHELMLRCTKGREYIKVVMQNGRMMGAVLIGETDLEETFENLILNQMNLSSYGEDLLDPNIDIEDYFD
# UniProt Q5HYI8: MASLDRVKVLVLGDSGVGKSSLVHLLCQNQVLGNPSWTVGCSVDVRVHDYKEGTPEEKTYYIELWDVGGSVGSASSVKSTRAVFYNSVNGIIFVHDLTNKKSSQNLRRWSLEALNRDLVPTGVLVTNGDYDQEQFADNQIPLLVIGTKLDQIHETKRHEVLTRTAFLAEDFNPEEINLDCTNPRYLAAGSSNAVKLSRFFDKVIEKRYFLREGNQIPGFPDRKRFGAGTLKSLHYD
# UniProt Q96PU8: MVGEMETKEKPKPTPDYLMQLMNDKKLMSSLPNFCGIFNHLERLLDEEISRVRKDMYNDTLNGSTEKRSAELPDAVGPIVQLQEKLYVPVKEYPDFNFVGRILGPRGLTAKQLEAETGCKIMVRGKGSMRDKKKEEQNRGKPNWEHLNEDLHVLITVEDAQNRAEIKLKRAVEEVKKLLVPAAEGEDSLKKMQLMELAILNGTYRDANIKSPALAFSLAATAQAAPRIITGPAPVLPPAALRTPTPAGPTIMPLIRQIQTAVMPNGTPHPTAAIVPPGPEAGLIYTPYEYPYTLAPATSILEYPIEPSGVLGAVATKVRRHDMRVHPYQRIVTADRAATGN
# UniProt P49792, whole entry, looked up: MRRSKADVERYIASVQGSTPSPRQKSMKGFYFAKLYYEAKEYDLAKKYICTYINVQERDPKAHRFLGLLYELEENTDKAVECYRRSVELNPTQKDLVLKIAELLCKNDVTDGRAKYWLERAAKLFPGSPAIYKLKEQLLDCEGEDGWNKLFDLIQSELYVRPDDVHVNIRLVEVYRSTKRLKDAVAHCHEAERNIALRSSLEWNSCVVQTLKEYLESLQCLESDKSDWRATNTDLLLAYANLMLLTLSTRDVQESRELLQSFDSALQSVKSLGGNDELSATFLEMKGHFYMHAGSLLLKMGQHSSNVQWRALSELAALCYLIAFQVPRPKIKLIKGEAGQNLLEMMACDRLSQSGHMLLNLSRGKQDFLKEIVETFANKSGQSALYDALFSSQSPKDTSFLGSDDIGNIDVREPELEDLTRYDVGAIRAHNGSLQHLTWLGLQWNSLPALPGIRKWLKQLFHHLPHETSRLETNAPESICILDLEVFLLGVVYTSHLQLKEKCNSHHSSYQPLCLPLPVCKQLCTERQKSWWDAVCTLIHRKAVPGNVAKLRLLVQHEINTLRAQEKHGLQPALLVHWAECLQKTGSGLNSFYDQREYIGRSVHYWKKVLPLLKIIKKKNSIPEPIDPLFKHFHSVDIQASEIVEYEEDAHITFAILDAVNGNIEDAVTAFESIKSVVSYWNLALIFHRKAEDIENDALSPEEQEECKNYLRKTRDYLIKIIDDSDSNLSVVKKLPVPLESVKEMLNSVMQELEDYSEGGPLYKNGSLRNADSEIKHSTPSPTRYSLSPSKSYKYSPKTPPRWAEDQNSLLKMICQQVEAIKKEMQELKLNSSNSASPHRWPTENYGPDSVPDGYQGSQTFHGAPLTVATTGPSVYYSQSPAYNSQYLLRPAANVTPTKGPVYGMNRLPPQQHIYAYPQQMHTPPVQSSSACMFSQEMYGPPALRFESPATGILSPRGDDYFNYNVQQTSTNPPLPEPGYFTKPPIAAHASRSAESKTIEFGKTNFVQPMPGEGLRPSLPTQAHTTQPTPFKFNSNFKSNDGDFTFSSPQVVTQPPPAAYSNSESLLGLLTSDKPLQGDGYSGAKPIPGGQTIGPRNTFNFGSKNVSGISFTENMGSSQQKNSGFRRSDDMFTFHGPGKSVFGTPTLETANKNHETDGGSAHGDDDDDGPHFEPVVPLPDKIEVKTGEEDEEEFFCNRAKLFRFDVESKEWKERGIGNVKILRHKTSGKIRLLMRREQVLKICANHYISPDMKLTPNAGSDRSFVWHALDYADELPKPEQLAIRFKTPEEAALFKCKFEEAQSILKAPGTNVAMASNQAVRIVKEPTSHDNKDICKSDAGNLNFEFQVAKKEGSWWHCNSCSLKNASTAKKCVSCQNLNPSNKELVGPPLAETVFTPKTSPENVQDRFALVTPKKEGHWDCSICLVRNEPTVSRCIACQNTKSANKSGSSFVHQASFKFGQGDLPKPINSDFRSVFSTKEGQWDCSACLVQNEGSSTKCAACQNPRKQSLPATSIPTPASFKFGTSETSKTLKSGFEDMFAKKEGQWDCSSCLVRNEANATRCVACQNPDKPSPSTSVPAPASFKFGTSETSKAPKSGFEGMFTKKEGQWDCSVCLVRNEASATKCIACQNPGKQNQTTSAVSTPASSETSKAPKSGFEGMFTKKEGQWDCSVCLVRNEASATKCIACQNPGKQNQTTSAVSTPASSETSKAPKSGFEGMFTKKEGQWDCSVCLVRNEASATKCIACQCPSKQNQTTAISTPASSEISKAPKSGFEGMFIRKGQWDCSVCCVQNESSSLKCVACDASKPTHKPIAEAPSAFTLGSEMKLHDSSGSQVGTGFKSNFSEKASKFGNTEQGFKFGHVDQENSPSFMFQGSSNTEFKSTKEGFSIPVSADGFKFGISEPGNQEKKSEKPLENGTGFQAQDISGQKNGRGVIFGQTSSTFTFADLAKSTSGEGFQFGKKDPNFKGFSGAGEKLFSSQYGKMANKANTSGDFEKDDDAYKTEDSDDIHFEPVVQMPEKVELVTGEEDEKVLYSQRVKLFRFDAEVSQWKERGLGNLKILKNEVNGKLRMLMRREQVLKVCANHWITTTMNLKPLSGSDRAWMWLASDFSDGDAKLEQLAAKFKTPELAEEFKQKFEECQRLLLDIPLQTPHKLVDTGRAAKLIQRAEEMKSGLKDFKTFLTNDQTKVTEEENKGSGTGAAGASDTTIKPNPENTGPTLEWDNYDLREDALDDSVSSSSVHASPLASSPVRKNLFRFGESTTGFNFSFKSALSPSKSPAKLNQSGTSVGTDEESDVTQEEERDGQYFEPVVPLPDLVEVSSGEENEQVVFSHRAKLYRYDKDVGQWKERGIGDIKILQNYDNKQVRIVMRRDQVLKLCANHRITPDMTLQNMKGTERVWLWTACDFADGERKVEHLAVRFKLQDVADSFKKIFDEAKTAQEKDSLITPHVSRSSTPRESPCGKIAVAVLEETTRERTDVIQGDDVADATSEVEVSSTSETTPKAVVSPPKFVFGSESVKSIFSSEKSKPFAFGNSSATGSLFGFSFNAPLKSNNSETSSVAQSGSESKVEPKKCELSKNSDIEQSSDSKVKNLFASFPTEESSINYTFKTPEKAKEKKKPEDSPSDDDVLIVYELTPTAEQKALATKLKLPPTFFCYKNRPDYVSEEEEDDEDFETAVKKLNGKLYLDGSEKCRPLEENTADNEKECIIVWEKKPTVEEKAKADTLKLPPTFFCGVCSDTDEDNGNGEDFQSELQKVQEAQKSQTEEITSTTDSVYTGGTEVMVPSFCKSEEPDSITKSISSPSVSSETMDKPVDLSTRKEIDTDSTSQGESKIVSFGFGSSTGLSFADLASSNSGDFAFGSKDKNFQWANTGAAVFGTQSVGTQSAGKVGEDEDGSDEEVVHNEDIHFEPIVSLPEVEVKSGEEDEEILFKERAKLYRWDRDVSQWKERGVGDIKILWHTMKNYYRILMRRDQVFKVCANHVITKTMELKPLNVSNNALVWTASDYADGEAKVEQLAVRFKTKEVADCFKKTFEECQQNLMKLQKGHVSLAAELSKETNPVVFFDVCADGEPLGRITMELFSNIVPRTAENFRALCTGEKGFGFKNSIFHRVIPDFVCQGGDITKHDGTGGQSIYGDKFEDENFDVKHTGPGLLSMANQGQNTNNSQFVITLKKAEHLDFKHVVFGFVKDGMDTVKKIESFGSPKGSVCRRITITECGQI
# UniProt P47736: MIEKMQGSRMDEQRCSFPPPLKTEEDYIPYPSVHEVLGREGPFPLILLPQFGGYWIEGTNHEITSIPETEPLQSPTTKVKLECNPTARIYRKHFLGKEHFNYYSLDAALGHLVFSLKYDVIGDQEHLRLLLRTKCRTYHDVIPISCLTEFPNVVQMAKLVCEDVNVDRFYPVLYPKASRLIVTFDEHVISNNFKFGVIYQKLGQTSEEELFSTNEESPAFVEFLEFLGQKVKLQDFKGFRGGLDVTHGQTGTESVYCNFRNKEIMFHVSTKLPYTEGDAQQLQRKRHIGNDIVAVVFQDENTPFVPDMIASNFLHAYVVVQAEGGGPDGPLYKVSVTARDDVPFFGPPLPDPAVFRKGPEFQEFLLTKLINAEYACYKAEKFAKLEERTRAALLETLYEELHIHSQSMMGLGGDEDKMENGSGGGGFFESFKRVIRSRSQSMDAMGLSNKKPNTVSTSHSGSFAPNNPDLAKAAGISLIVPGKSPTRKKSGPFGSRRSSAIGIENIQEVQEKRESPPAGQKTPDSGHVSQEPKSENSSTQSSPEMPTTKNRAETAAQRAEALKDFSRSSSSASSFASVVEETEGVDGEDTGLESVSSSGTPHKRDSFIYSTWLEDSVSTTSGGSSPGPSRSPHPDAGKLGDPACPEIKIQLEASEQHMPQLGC
# UniProt Q9H082: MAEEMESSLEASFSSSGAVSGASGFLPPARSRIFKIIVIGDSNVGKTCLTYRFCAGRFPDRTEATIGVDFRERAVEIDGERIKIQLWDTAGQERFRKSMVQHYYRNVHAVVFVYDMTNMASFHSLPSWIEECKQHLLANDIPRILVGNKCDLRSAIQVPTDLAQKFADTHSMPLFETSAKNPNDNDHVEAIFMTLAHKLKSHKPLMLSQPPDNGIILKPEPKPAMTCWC
# UniProt Q9NR77: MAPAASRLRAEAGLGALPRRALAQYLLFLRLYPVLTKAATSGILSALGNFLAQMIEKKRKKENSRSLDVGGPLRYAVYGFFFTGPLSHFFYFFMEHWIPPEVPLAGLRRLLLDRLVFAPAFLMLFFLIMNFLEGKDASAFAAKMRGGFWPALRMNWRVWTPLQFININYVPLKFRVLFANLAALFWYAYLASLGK
# UniProt Q96C36: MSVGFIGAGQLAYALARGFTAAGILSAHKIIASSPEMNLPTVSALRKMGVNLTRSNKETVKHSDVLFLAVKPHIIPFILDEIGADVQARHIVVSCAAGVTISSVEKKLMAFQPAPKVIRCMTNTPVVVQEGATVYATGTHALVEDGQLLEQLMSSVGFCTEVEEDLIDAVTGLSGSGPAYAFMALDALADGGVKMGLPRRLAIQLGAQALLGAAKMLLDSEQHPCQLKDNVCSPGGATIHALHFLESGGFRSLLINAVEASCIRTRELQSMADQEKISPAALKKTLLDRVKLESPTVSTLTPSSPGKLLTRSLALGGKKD
# UniProt Q9Y6I8: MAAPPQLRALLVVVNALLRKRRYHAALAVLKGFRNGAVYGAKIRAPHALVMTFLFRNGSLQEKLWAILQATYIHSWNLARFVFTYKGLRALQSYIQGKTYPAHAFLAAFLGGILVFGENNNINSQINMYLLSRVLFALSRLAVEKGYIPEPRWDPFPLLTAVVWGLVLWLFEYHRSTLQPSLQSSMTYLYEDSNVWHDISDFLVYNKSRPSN
# The list shows a part of the results.
# Legend:
# Assay in all cases: log2 fold change, soluble protein after heating vs DMSO (PISA); higher = thermal stabilisation; K562 lysate, 10 uM; active = over 0.2 and 3.5 SD of the protein, either way, in both replicates (recomputed)
# alvocidib = compound: CN1CC[C@H](c2c(O)cc(O)c3c(=O)cc(-c4ccccc4Cl)oc23)[C@H](O)C1 [alvocidib]
# Outline: (§1)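 K562 pellets were dounce-homogenised in PBS pH 7.4 containing 1 mM MgCl2, and the crude extract, at 1 mg/mL protein, was exposed to 10 μM compound for 30 min. Aliquots were heated for 3 min across 48°C-58°C, pooled, brought to 0.5% NP-40 at 4°C and spun at 21,000xg for 90 min, with the supernatant taken as soluble protein. TMTpro 16plex LC-MS/MS with equalised channel sums quantified that protein. Values are log-two fold changes in thermal stability relative to solvent controls, taken from duplicates.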
# Tubastatin A = compound: CN1CCc2c(c3ccccc3n2Cc2ccc(C(=O)NO)cc2)C1 [Tubastatin A]
# Outline: as §1
# [1] = compound: CNC(=O)C1=CC=CC=C1NC2=NC(=NC=C2Cl)NC3=C(C=C(C=C3)N4CCOCC4)OC
# Outline: as §1
# defactinib = compound: CNC(=O)c1ccc(Nc2ncc(C(F)(F)F)c(NCc3nccnc3N(C)S(C)(=O)=O)n2)cc1 [defactinib]
# Outline: as §1
# [2] = compound: CNc1nc(-c2ccc3c(N)n[nH]c3c2)cc(N2C[C@@H](C(=O)NC3CCCCC3)CC[C@H]2C)n1
# Outline: as §1
# encorafenib = compound: COC(=O)N[C@@H](C)CNc1nccc(-c2cn(C(C)C)nc2-c2cc(Cl)cc(NS(C)(=O)=O)c2F)n1 [encorafenib]
# Outline: as §1
# [3] = compound: COC(=O)[C@H](CCSC)NC(=O)C1=C(C=C(C=C1)NC[C@H](CS)N)C2=CC=CC=C2
# Outline: as §1
# alisertib = compound: COc1cc(Nc2ncc3c(n2)-c2ccc(Cl)cc2C(c2c(F)cccc2OC)=NC3)ccc1C(=O)O [alisertib]
# Outline: as §1
# [4] = compound: COc1cc2nc(-c3cc(F)ccc3O)nc(N[C@@H]3CNC[C@H]3C(C)(C)O)c2cc1OC
# Outline: as §1
# gefitinib = compound: COc1cc2ncnc(Nc3ccc(F)c(Cl)c3)c2cc1OCCCN1CCOCC1 [gefitinib]
# Outline: as §1
Target,log2 fold change (alvocidib),log2 fold change (Tubastatin A),log2 fold change [1],log2 fold change (defactinib),log2 fold change [2],log2 fold change (encorafenib),log2 fold change [3],log2 fold change (alisertib),log2 fold change [4],log2 fold change (gefitinib)
R3HCC1 (UniProt Q9Y3T6),inactive: -0.019,inactive: 0.023,inactive: 0.048,inactive: 0.055,inactive: -0.018,inactive: -0.004,inactive: -0.04,inactive: -0.002,inactive: 0.003,inactive: 0.008
RAB18 isoform 2 (UniProt Q9NP72),inactive: -0.066,inactive: 0.052,inactive: 0.007,inactive: 0.028,inactive: -0.006,inactive: 0.007,inactive: 0.042,inactive: 0.025,inactive: 0.068,inactive: 0
RAB21 (UniProt Q9UL25),inactive: 0.069,inactive: 0.034,inactive: 0.048,inactive: -0.025,inactive: 0.026,inactive: 0.005,inactive: -0.072,inactive: 0.015,inactive: 0.013,inactive: 0.003
RAB4B isoform 2 (UniProt P61018),inactive: -0.038,inactive: 0.015,inactive: -0.025,inactive: -0.04,inactive: -0.042,inactive: 0.05,inactive: -0.01,inactive: 0.042,inactive: 0.071,inactive: 0.03
RAB6D (UniProt Q53S08),inactive: -0.029,inactive: 0.078,inactive: 0.024,inactive: 0.077,inactive: 0.087,inactive: 0.023,inactive: -0.034,inactive: -0.149,inactive: 0.062,inactive: 0.027
RALY (UniProt Q9UKM9),inactive: 0.037,inactive: -0.009,inactive: -0.004,inactive: 0.019,inactive: -0.044,inactive: 0.016,inactive: 0.095,inactive: -0.007,inactive: 0.014,inactive: -0.054
PYROXD1 (UniProt Q8WU10),inactive: 0.139,inactive: -0.101,inactive: -0.057,inactive: 0.085,inactive: -0.001,inactive: 0.04,inactive: 0.007,inactive: -0.054,inactive: -0.064,inactive: 0.058
RABL3 (UniProt Q5HYI8),inactive: -0.023,inactive: -0.193,inactive: 0.154,inactive: 0,inactive: -0.021,inactive: 0.02,inactive: -0.01,inactive: -0.036,inactive: -0.038,inactive: 0.005
RALB isoform 2 (UniProt P11234),inactive: -0.059,inactive: 0.029,inactive: -0.023,inactive: 0.025,inactive: -0.02,inactive: 0.039,inactive: -0.033,inactive: 0.01,inactive: 0.013,inactive: 0.03
QKI (UniProt Q96PU8),inactive: -0.058,inactive: -0.005,inactive: 0.024,inactive: 0.029,inactive: -0.02,inactive: 0.045,inactive: -0.206,inactive: 0.069,inactive: 0.009,inactive: 0.021
RAP1GDS1 isoform 5 (UniProt P52306),inactive: -0.01,inactive: -0.037,inactive: 0.018,inactive: -0.061,inactive: -0.018,inactive: 0.019,inactive: 0.013,inactive: 0.031,inactive: -0.009,inactive: 0.062
RAB13 (UniProt P51153),inactive: 0.015,inactive: -0.085,inactive: -0.056,inactive: 0.061,inactive: -0.141,inactive: 0.101,inactive: -0.054,inactive: 0.057,inactive: 0.01,inactive: 0.05
QPCTL (UniProt Q9NXS2),inactive: -0.018,inactive: -0.037,inactive: 0,inactive: 0.082,inactive: 0.024,inactive: 0.023,inactive: 0.075,inactive: 0.117,inactive: -0.066,inactive: -0.007
RANBP3 (UniProt Q9H6Z4),inactive: -0.011,inactive: 0.03,inactive: 0.022,inactive: 0,inactive: 0.018,inactive: -0.035,inactive: -0.029,inactive: 0.003,inactive: 0.019,inactive: 0.004
RAD51D (UniProt O75771),inactive: 0.171,inactive: 0.015,inactive: 0.006,inactive: -0.047,inactive: -0.053,inactive: 0.07,inactive: 0.011,inactive: -0.084,inactive: -0.031,inactive: 0.113
RANBP2 (UniProt P49792),inactive: -0.001,inactive: -0.169,inactive: 0.011,inactive: 0.004,inactive: -0.041,inactive: 0.038,inactive: 0.042,inactive: -0.01,inactive: 0,inactive: -0.013
RAP1GAP isoform 4 (UniProt P47736),inactive: 0.01,inactive: -0.138,inactive: 0.06,inactive: 0.012,inactive: -0.027,inactive: 0.022,inactive: 0.01,inactive: 0.024,inactive: 0.008,inactive: 0.026
RAC1 isoform 2 (UniProt P63000),inactive: 0.052,inactive: 0.024,inactive: -0.046,inactive: 0.005,inactive: 0.05,inactive: -0.052,inactive: -0.018,inactive: -0.028,inactive: 0.027,inactive: 0.011
RAB33B (UniProt Q9H082),inactive: -0.019,inactive: 0.082,inactive: -0.063,inactive: 0.091,inactive: 0.05,inactive: 0.055,inactive: -0.046,inactive: -0.017,inactive: -0.024,inactive: -0.006
RAB7A (UniProt P51149),inactive: -0.014,inactive: 0.088,inactive: -0.035,inactive: -0.003,inactive: -0.005,inactive: 0.005,inactive: -0.021,inactive: 0.014,inactive: 0.049,inactive: 0.032
RAD51 (UniProt Q06609),inactive: -0.025,inactive: -0.076,inactive: -0.01,inactive: -0.098,inactive: -0.022,inactive: 0.071,inactive: 0.132,inactive: -0.018,inactive: 0.001,inactive: -0.056
QRSL1 (UniProt Q9H0R6),inactive: -0.028,inactive: -0.021,inactive: -0.012,inactive: -0.068,inactive: -0.051,inactive: -0.015,inactive: -0.005,inactive: 0.014,inactive: 0.014,inactive: -0.045
PXMP2 (UniProt Q9NR77),inactive: -0.067,inactive: 0.01,inactive: 0.053,inactive: 0.03,inactive: 0.095,inactive: 0.03,inactive: 0.012,inactive: 0.032,inactive: -0.035,inactive: -0.022
QTRT1 (UniProt Q9BXR0),inactive: -0.027,inactive: 0.005,inactive: 0.018,inactive: -0.014,inactive: 0.048,inactive: -0.041,inactive: 0.025,inactive: -0.007,inactive: -0.021,inactive: -0.053
RAB1B (UniProt Q9H0U4),inactive: -0.146,inactive: 0.007,inactive: -0.016,inactive: -0.037,inactive: 0.01,inactive: 0.065,inactive: -0.058,inactive: 0.047,inactive: 0.003,inactive: 0.064
PYCR2 (UniProt Q96C36),inactive: -0.052,inactive: 0.041,inactive: 0.004,inactive: 0.001,inactive: 0.011,inactive: -0.005,inactive: -0.038,inactive: 0.013,inactive: -0.001,inactive: -0.005
RAB2A (UniProt P61019),inactive: -0.014,inactive: 0.017,inactive: 0.01,inactive: 0.03,inactive: -0.133,inactive: 0.091,inactive: -0.083,inactive: 0.039,inactive: 0.019,inactive: 0.016
RAB32 (UniProt Q13637),inactive: 0.057,inactive: 0.052,inactive: -0.016,inactive: 0.029,inactive: -0.039,inactive: 0,inactive: -0.043,inactive: -0.035,inactive: -0.041,inactive: 0.042
RAB6B (UniProt Q9NRW1),inactive: -0.017,inactive: 0.073,inactive: 0.036,inactive: 0.03,inactive: -0.015,inactive: 0.071,inactive: -0.029,inactive: 0.024,inactive: 0.003,inactive: -0.002
PXMP4 (UniProt Q9Y6I8),inactive: 0,inactive: -0.015,inactive: 0.012,inactive: -0.028,active: 0.736,inactive: 0.033,inactive: 0.092,inactive: -0.039,inactive: -0.009,inactive: -0.039

# Some of the entries so far, with bars between the fields.
Target | log2 fold change (alvocidib) | log2 fold change (Tubastatin A) | log2 fold change [1] | log2 fold change (defactinib) | log2 fold change [2] | log2 fold change (encorafenib) | log2 fold change [3] | log2 fold change (alisertib) | log2 fold change [4] | log2 fold change (gefitinib)
RAD51D (UniProt O75771) | inactive: 0.171 | inactive: 0.015 | inactive: 0.006 | inactive: -0.047 | inactive: -0.053 | inactive: 0.07 | inactive: 0.011 | inactive: -0.084 | inactive: -0.031 | inactive: 0.113
RANBP2 (UniProt P49792) | inactive: -0.001 | inactive: -0.169 | inactive: 0.011 | inactive: 0.004 | inactive: -0.041 | inactive: 0.038 | inactive: 0.042 | inactive: -0.01 | inactive: 0 | inactive: -0.013
RAP1GAP isoform 4 (UniProt P47736) | inactive: 0.01 | inactive: -0.138 | inactive: 0.06 | inactive: 0.012 | inactive: -0.027 | inactive: 0.022 | inactive: 0.01 | inactive: 0.024 | inactive: 0.008 | inactive: 0.026
RAC1 isoform 2 (UniProt P63000) | inactive: 0.052 | inactive: 0.024 | inactive: -0.046 | inactive: 0.005 | inactive: 0.05 | inactive: -0.052 | inactive: -0.018 | inactive: -0.028 | inactive: 0.027 | inactive: 0.011
RAB33B (UniProt Q9H082) | inactive: -0.019 | inactive: 0.082 | inactive: -0.063 | inactive: 0.091 | inactive: 0.05 | inactive: 0.055 | inactive: -0.046 | inactive: -0.017 | inactive: -0.024 | inactive: -0.006
RAB7A (UniProt P51149) | inactive: -0.014 | inactive: 0.088 | inactive: -0.035 | inactive: -0.003 | inactive: -0.005 | inactive: 0.005 | inactive: -0.021 | inactive: 0.014 | inactive: 0.049 | inactive: 0.032
RAD51 (UniProt Q06609) | inactive: -0.025 | inactive: -0.076 | inactive: -0.01 | inactive: -0.098 | inactive: -0.022 | inactive: 0.071 | inactive: 0.132 | inactive: -0.018 | inactive: 0.001 | inactive: -0.056
QRSL1 (UniProt Q9H0R6) | inactive: -0.028 | inactive: -0.021 | inactive: -0.012 | inactive: -0.068 | inactive: -0.051 | inactive: -0.015 | inactive: -0.005 | inactive: 0.014 | inactive: 0.014 | inactive: -0.045
PXMP2 (UniProt Q9NR77) | inactive: -0.067 | inactive: 0.01 | inactive: 0.053 | inactive: 0.03 | inactive: 0.095 | inactive: 0.03 | inactive: 0.012 | inactive: 0.032 | inactive: -0.035 | inactive: -0.022
